Test results taken from PubChem BioAssay AID540276 (National Center for Advancing Translational Sciences (NCATS), 2011).
Out of some 300,000 compounds screened, about 5,400 (1.8%) were called active. The inconclusive results got no clear call from the source; some entries with a clear call stand among them for comparison. Calls come from the whole dose curve; tested in HEK293 cells. A potency beside an inconclusive call is a rough fit, not a confirmed value.

Assay: qHTS for inhibitors of binding or entry into cells for Marburg Virus
Details: Marburg virus pseudotyped entry inhibition, cell reporter; series mostly up to 37.8 µM
Potency is the fitted concentration of half-maximal effect.

Row | SMILES | Potency
1 | C=C(C)C1CC=C(C)/C(=N/NC(=O)c2cccs2)C1 (centres undefined) | inconclusive: 35.5 µM [activator, single point]
2 | CCOc1cc(C2Nc3ccccc3C(=O)N2c2ccccc2OC)ccc1O (centres undefined) | inconclusive: 0.0183 µM [activator, full curve, poor fit]
3 | COc1ccc(C)cc1NC(=O)C1COc2ccccc2O1 (centres undefined) | inconclusive: 35.5 µM [inhibitor, single point]
4 | CC1CCCCC1NC(=O)C1CCN(S(=O)(=O)c2ccc(-n3cnnn3)cc2)CC1 (centres undefined) | inconclusive: 29.1 µM [activator, partial curve, poor fit]
5 | CCOC(=O)c1c(C)[nH]c(C)c1C(=O)COC(=O)c1cccc(S(=O)(=O)N(CC)CC)c1 | inactive
6 | Cc1ccc2c(c1)C(N1CCCC1=O)CC(c1ccco1)N2 (centres undefined) | inconclusive: 11.2 µM [inhibitor, single point]
7 | O=C(CN1C(=O)S/C(=C\c2ccccc2Cl)C1=O)NC1C=CS(=O)(=O)C1 (centres undefined) | inconclusive: 14.1 µM [inhibitor, partial curve, poor fit]
8 | CCOC(=O)c1ccc(N2C(=O)c3n[nH]c(C)c3C2c2ccccc2)cc1 (centres undefined) | inconclusive: 14.6 µM [inhibitor, partial curve, poor fit]
9 | Cc1ccc(CSCC(=O)NCc2ccc3c(c2)OCO3)cc1 | inactive
10 | O=C(NCCCN1CCOCC1)c1ccc2c(c1)N(Cc1c(F)cccc1Cl)C(=O)CS2 | inconclusive: 35.5 µM [inhibitor, single point]
11 | O=C(Nc1ccccn1)c1cc(-c2cccnc2)nc2ccc(Br)cc12 | inconclusive: 25.1 µM [inhibitor, single point]
12 | COc1ccc(CNC(=O)CN(Cc2ccc(F)cc2)C(=O)CCC(=O)Nc2nccs2)cc1 | inconclusive: 10 µM [inhibitor, partial curve, poor fit]
13 | Cc1ccc(OCC(=O)Nc2ccccc2F)cc1C | inactive
14 | COc1ccc2[nH]cc(CCN=C(NC(=O)c3cccc(Cl)c3)Nc3nc(C)cc(C)n3)c2c1 | inconclusive: 35.5 µM [inhibitor, single point]
15 | FC(F)Sc1ccc(N=C2NN=C(c3ccc4c(c3)OCCO4)CS2)cc1 | inconclusive: 29.1 µM [inhibitor, single point]
16 | CC1=CC(O)C(O)C2(C)C1CC1OC(=O)CC3C(C)C(O)C(=O)C2C13CO (centres undefined) | inconclusive: 20 µM [inhibitor, single point]
17 | CC[n+]1c(/C=C/C=C/N(C(C)=O)c2ccccc2)sc2cc(OC)ccc21 | inconclusive: 2.51 µM [inhibitor, partial curve, poor fit]
18 | COc1ccc(C(=O)NCc2nnc(SCC(=O)Nc3nc4ccccc4s3)o2)cc1OC | inconclusive: 35.5 µM [activator, single point]
19 | Cc1cc(C)c2c(N)c(C(=O)Nc3cccc(C)c3C)sc2n1 | inconclusive: 2.51 µM [inhibitor, full curve]
20 | Cc1nnc2ccc(-c3cccc(NS(=O)(=O)c4ccccc4Cl)c3)nn12 | inconclusive: 28.2 µM [inhibitor, partial curve, poor fit]
21 | C=C[C@@]1(C)CC[C@H](O)[C@H]2C(=O)CCC[C@H]21 | inactive
22 | O=C(COc1ccc([N+](=O)[O-])cc1)NCCC1=CCCCC1 | inactive
23 | CCc1ccc(C(=O)COC(=O)c2cc([N+](=O)[O-])ccc2N2CCOCC2)cc1 | active: 3.16 µM

Individual results from the entries so far:
CCOC(=O)c1ccc(N2C(=O)c3n[nH]c(C)c3C2c2ccccc2)cc1 (centres undefined) | Potency: inconclusive: 14.6 µM [inhibitor, partial curve, poor fit]
FC(F)Sc1ccc(N=C2NN=C(c3ccc4c(c3)OCCO4)CS2)cc1 | Potency: inconclusive: 29.1 µM [inhibitor, single point]
C=C(C)C1CC=C(C)/C(=N/NC(=O)c2cccs2)C1 (centres undefined) | Potency: inconclusive: 35.5 µM [activator, single point]

(list continues)

Row | SMILES | Potency
24 | CCOC(=O)c1cnc2c(C(=O)OC)cccc2c1NCc1ccco1 | inactive
25 | Cc1nn(Cc2ccccc2)c(C)c1C=C1C(=O)NC(=S)NC1=O | inactive
26 | COc1ccccc1C(=O)NC(=O)CSc1nncn1C(C)C | inconclusive: 35.5 µM [activator, single point]
27 | Cc1sc2ncnc(SCC(=O)N3CCCC3=O)c2c1C | inconclusive: 1.16 µM [inhibitor, single point]
28 | CCN(CC)c1ccc(/C=C2\SC(=O)N(C(C)C)C2=O)o1 | active: 11.2 µM
29 | O=C(NCCc1ccc(Cl)cc1)c1n[nH]c2ccccc12 | inactive
30 | CCOc1ccc(C(=O)N(CC(=O)Nc2cccc(C)c2C)CC2CCCO2)cc1OC (centres undefined) | inactive
31 | O=C(CCN1CCN(c2ccccc2)CC1)Nc1nccs1 | inconclusive: 4.61 µM [inhibitor, full curve, poor fit]
32 | Cc1onc(-c2ccccc2Cl)c1-c1nc(-c2ccncc2)no1 | inactive
33 | CCN(CC)CCn1c2ccccc2c2cnc(N=CN(C)C)c(C#N)c21 | inconclusive: 35.5 µM [inhibitor, single point]
34 | COc1ccc(NC(=S)NC(=O)/C=C/c2cccs2)cc1 | inconclusive: 35.5 µM [inhibitor, single point]
35 | Cc1cc(C(=O)NCc2ccc(S(N)(=O)=O)cc2)ccc1[N+](=O)[O-] | inactive
36 | O=c1c2c3c(sc2nc2n1N=C(c1cccs1)CS2)CCCC3 | inactive
37 | CCNC(=O)CC1C(=O)N(c2cccc(C)c2)C(=O)N1CCC(C)C (centres undefined) | inconclusive: 0.316 µM [inhibitor, partial curve, poor fit]
38 | O=C(NCc1cccnc1)c1ccccc1NS(=O)(=O)c1ccc(F)cc1 | inactive
39 | N#CC1(c2ccccc2)CCN(C2CC(=O)N(c3cccc(F)c3)C2=O)CC1 (centres undefined) | inactive
40 | O=C(/C=C/c1ccc2c(c1)OCCCO2)c1ccccc1O | inconclusive: 4.47 µM [activator, single point]
41 | O=C(/C=C/c1ccc(Cl)cc1)NC(=S)Nc1ccc(C(=O)O)cc1 | inactive
42 | CC(C)(C)NC(=O)c1sccc1C(=O)O | inconclusive: 29.1 µM [activator, single point]
43 | O=C(Nc1ccccc1Cl)c1ccc2c(=O)n3c(nc2c1)CCC3 | inconclusive: 35.5 µM [inhibitor, partial curve, poor fit]
44 | NNC(=O)c1cnn(-c2ccccc2)c1-n1cccc1 | inconclusive: 5.62 µM [inhibitor, partial curve, poor fit]
45 | CCC(C)c1ccc(NC(=S)Nc2ccc(OC)cc2C)cc1 (centres undefined) | inconclusive: 2.51 µM [activator, partial curve]
46 | CN(C)c1ccc(C=Nc2ccccc2C(N)=O)cc1 | active: 14.6 µM

As a short view, part of the list above:
Row | SMILES | Potency
37 | CCNC(=O)CC1C(=O)N(c2cccc(C)c2)C(=O)N1CCC(C)C (centres undefined) | inconclusive: 0.316 µM [inhibitor, partial curve, poor fit]
38 | O=C(NCc1cccnc1)c1ccccc1NS(=O)(=O)c1ccc(F)cc1 | inactive

(listing goes on)

Row | SMILES | Potency
47 | COc1cc(OC)cc(-c2nc(=S)n3ccsc3n2)c1 | inconclusive: 35.5 µM [activator, partial curve, poor fit]
48 | COc1ccc(C(=O)c2cnc3ccc(C)cc3c2S(=O)(=O)c2ccccc2)cc1 | inconclusive: 15.8 µM [inhibitor, partial curve, poor fit]
49 | CN(Cc1cn[nH]c1-c1cc2ccccc2o1)CC1CCOCC1 | inconclusive: 35.5 µM [inhibitor, single point]
50 | O=S(=O)(c1cccc(-c2nnc(SC(F)F)n2-c2ccccc2)c1)N1CCCCC1 | inconclusive: 12.6 µM [inhibitor, partial curve, poor fit]
51 | O=C1CC(N2CCN(c3ccccn3)CC2)C(=O)N1CC(c1ccccc1)c1ccccc1 (centres undefined) | inconclusive: 23.1 µM [inhibitor, partial curve, poor fit]
52 | C/C(=N\NC(=O)c1ccc(CSc2nc(C)cc(C)n2)cc1)c1ccco1 | inconclusive: 12.6 µM [activator, single point]
53 | CCSC(C)CC1C/C(=N/O)c2c(CC)noc2C1 (centres undefined) | inconclusive: 3.66 µM [inhibitor, partial curve, poor fit]
54 | Cc1ccc(S(=O)(=O)NC(=NC2CCCCC2)c2ccc(Cl)cc2)cc1 | inactive
55 | Fc1cccc(Cl)c1CNC(c1ccccc1)c1ccccc1 | inconclusive: 32.6 µM [inhibitor, single point]
56 | Cn1c(SCC(=O)Nc2nccs2)nnc1C12CC3CC(CC(C3)C1)C2 | inactive
57 | CCC(C)Nc1nc(-c2cccc(OC)c2O)nc2ccccc12 (centres undefined) | inconclusive: 12.6 µM [inhibitor, partial curve, poor fit]
58 | O=C(NCCCN1CCOCC1)c1ccc(Br)cc1 | inconclusive: 5.01 µM [activator, partial curve, poor fit]
59 | CN1CCN(c2oc(COc3ccc(-c4ccccc4)cc3)nc2C#N)CC1 | inconclusive: 18.3 µM [inhibitor, single point]
60 | CCc1ccc2occ(CC(=O)Nc3nnc(C)s3)c2c1 | inconclusive: 3.98 µM [inhibitor, single point]
61 | Cc1nc(Nc2nc3ccccc3o2)nc2c1CCC2 | active: 7.3 µM
62 | COc1cccc(C(=O)Nc2nnc(CCS(=O)(=O)c3ccc(C)cc3)s2)c1 | inconclusive: 35.5 µM [inhibitor, single point]
63 | C[C@@H]1CN(c2oc(-c3cccs3)nc2C#N)C[C@H](C)O1 | inconclusive: 25.1 µM [inhibitor, single point]
64 | CCOc1ccc(C(=O)N2CCc3cc(OC)c(OC)cc3C2)cc1OCC | inconclusive: 0.58 µM [inhibitor, partial curve, poor fit]
65 | COc1cc(/C=N/O)ccc1OCc1ccc(C(=O)O)cc1 | active: 0.1 µM
66 | c1ccc(-n2nnnc2SCc2ccccn2)cc1 | inconclusive: 6.51 µM [activator, single point]
67 | S=c1[nH]nc(-c2ccccc2Cl)n1Cc1ccccc1 | inconclusive: 2.82 µM [activator, partial curve, poor fit]
68 | Cc1ccc(C2N(c3ccc(Cl)cc3)C(=O)N3CCCN23)cc1 (centres undefined) | inconclusive: 7.94 µM [inhibitor, partial curve, poor fit]
69 | COc1ccc(C(=O)Nc2cccc(C(C)=O)c2)cc1S(=O)(=O)N1CCOCC1 | inconclusive: 35.5 µM [inhibitor, single point]
